The list shows only some results of the screen, not a fair sample: it is rich in T/C values a quarter to a half above the control, in often repeated tests (any T/C) and in doses without a T/C. Further doses and runs are listed elsewhere. T/C: endpoint of the treated group in % of that of the vehicle group. Where survival is the endpoint, this PubChem deposit counts one and a half times the control or more as active, and values a quarter to a half above the control carry no call in these data; other NCI protocols may use other cut-offs. Schedule codes are those of the source, read here as Q, the interval in days (D) or hours (H), X, the number of doses. Additions like (4×) say how often a value occurs here. Some entries hold several experiments; the values are given in rising order. Some schedules carry Z or #; the key to these is not given. Some T/C values carry the count of animals alive at the toxicity check (mostly the fifth day); where none is given, no animal had died by that day.
How the values were obtained:
[1] = system: BDF1 mice, L1210 leukemia sc, survival T/C; assay: NCI In Vivo Anticancer Drug Screen. Data for tumor model L1210 Leukemia (subcutaneous) in B6D2F1 (BDF1) mice; details: T/C endpoint: median survival time, higher T/C = longer survival
In short: (§1)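 Mice carrying transplanted tumors received test compounds, and survival or tumor size was measured. Values are the treated-group measurement (T) divided by that of the vehicle-treated control group (C).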

[2] = system: BDF1 mice, L1210 leukemia sc; assay: as above; details: higher T/C = longer survival
In short: as §1

Q: Which T/C ([1]; dose: 108.0 mg/kg/injection, schedule: Q01DX009 (sc), vehicle: steroid suspending solution, evaluated on day 6) does the source give for `CN(C)/N=N/c1nc[nH]c1C(N)=O` here?
A: 114 and 117 % of control

Q: What about the T/C ([1]; dose: 108.0 mg/kg/injection, schedule: Q01DX009 (sc), vehicle: steroid suspending solution, evaluated on day 37) of the same compound?
A: 116 % of control

Q: What about the T/C ([1]; dose: 108.0 mg/kg/injection, schedule: Q01DX009 (sc), vehicle: steroid suspending solution, evaluated on day 38) of the same compound?
A: 105 % of control

Q: And the T/C ([1]; dose: 108.0 mg/kg/injection, schedule: Q01DX015 (sc), vehicle: Klucel (hydroxypropylcellulose) (HPC), evaluated on day 7)?
A: 104 and 110 % of control

Q: And the T/C ([1]; dose: 108.0 mg/kg/injection, schedule: Q01DX015 (sc), vehicle: Klucel (hydroxypropylcellulose) (HPC), evaluated on day 30)?
A: 110 % of control

Q: What about the T/C ([1]; dose: 108.0 mg/kg/injection, schedule: Q01DX015 (sc), vehicle: Klucel (hydroxypropylcellulose) (HPC), evaluated on day 64) of the same compound?
A: 100 % of control

Q: And the T/C ([1]; dose: 180.0 mg/kg/injection, schedule: Q01DX009 (sc), vehicle: steroid suspending solution, evaluated on day 38)?
A: 110 % of control

Q: What about the T/C ([1]; dose: 180.0 mg/kg/injection, schedule: Q01DX015 (sc), vehicle: Klucel (hydroxypropylcellulose) (HPC), evaluated on day 7) of the same compound?
A: 114 and 116 % of control

Q: What about the T/C ([1]; dose: 180.0 mg/kg/injection, schedule: Q01DX015 (sc), vehicle: Klucel (hydroxypropylcellulose) (HPC), evaluated on day 30) of the same compound?
A: 116 % of control [7 of 8 alive]

Q: And the T/C ([1]; dose: 180.0 mg/kg/injection, schedule: Q01DX015 (sc), vehicle: Klucel (hydroxypropylcellulose) (HPC), evaluated on day 64)?
A: 111 % of control

Q: What about the T/C ([1]; dose: 300.0 mg/kg/injection, schedule: Q01DX009 (sc), vehicle: steroid suspending solution, evaluated on day 6) of the same compound?
A: 169 % of control

Q: And the T/C ([1]; dose: 300.0 mg/kg/injection, schedule: Q01DX009 (sc), vehicle: steroid suspending solution, evaluated on day 37)?
A: 150 % of control

Q: And the T/C ([1]; dose: 300.0 mg/kg/injection, schedule: Q01DX009 (sc), vehicle: steroid suspending solution, evaluated on day 38)?
A: 120 % of control

Q: And the T/C ([1]; dose: 300.0 mg/kg/injection, schedule: Q01DX015 (sc), vehicle: Klucel (hydroxypropylcellulose) (HPC), evaluated on day 7)?
A: 122 and 123 % of control

Q: And the T/C ([1]; dose: 300.0 mg/kg/injection, schedule: Q01DX015 (sc), vehicle: Klucel (hydroxypropylcellulose) (HPC), evaluated on day 30)?
A: 122 % of control

Q: What about the T/C ([1]; dose: 300.0 mg/kg/injection, schedule: Q01DX015 (sc), vehicle: Klucel (hydroxypropylcellulose) (HPC), evaluated on day 64) of the same compound?
A: 122 % of control

Q: And the T/C ([1]; dose: 500.0 mg/kg/injection, schedule: Q01DX015 (sc), vehicle: Klucel (hydroxypropylcellulose) (HPC), evaluated on day 7)?
A: 117 % of control

Q: What about the T/C ([1]; dose: 500.0 mg/kg/injection, schedule: Q01DX015 (sc), vehicle: Klucel (hydroxypropylcellulose) (HPC), evaluated on day 30) of the same compound?
A: 117 % of control

Q: And the T/C ([1]; dose: 833.0 mg/kg/injection, schedule: Q01DX015 (sc), vehicle: Klucel (hydroxypropylcellulose) (HPC), evaluated on day 7)?
A: 121 % of control (2×)

Q: And the T/C ([1]; dose: 833.0 mg/kg/injection, schedule: Q01DX015 (sc), vehicle: Klucel (hydroxypropylcellulose) (HPC), evaluated on day 30)?
A: 121 % of control

Q: And the T/C ([1]; dose: 833.0 mg/kg/injection, schedule: Q01DX015 (sc), vehicle: Klucel (hydroxypropylcellulose) (HPC), evaluated on day 64)?
A: 122 % of control

Q: And the T/C ([2]; T/C endpoint: mean survival time, dose: 108.0 mg/kg/injection, schedule: Q01DX009 (sc), vehicle: steroid suspending solution)?
A: 125 % of control

Q: What about the T/C ([2]; T/C endpoint: mean survival time, dose: 180.0 mg/kg/injection, schedule: Q01DX009 (sc), vehicle: steroid suspending solution) of the same compound?
A: 142 % of control

Q: What about the T/C ([2]; T/C endpoint: median survival time, dose: 65.0 mg/kg/injection, schedule: Q01DX017 (oral), vehicle: steroid suspending solution) of the same compound?
A: 127 % of control

Q: And the T/C ([2]; T/C endpoint: median survival time, dose: 108.0 mg/kg/injection, schedule: Q01DX009 (sc), vehicle: steroid suspending solution, evaluated on day 6)?
A: 126 % of control

Q: What about the T/C ([2]; T/C endpoint: median survival time, dose: 108.0 mg/kg/injection, schedule: Q01DX013 (sc), vehicle: other) of the same compound?
A: 127 % of control

Q: What about the T/C ([2]; T/C endpoint: median survival time, dose: 108.0 mg/kg/injection, schedule: Q01DX017 (oral), vehicle: steroid suspending solution, evaluated on day 6) of the same compound?
A: 135 % of control

Q: And the T/C ([2]; T/C endpoint: median survival time, dose: 108.0 mg/kg/injection, schedule: Q01DX017 (oral), vehicle: steroid suspending solution, evaluated on day 47)?
A: 138 % of control

Q: And the T/C ([2]; T/C endpoint: median survival time, dose: 108.0 mg/kg/injection, schedule: Q01DX Z (sc), vehicle: steroid suspending solution)?
A: 127 % of control

Q: What about the T/C ([2]; T/C endpoint: median survival time, dose: 180.0 mg/kg/injection, schedule: Q01DX009 (sc), vehicle: steroid suspending solution, evaluated on day 6) of the same compound?
A: 128, 130, 143 % of control

Q: And the T/C ([2]; T/C endpoint: median survival time, dose: 180.0 mg/kg/injection, schedule: Q01DX009 (sc), vehicle: steroid suspending solution, evaluated on day 37)?
A: 133 % of control

Q: What about the T/C ([2]; T/C endpoint: median survival time, dose: 180.0 mg/kg/injection, schedule: Q01DX013 (sc), vehicle: other) of the same compound?
A: 127 % of control

Q: What about the T/C ([2]; T/C endpoint: median survival time, dose: 180.0 mg/kg/injection, schedule: Q01DX013 (sc), vehicle: steroid suspending solution, evaluated on day 6) of the same compound?
A: 133 % of control

Q: And the T/C ([2]; T/C endpoint: median survival time, dose: 180.0 mg/kg/injection, schedule: Q01DX013 (sc), vehicle: steroid suspending solution, evaluated on day 36)?
A: 127 % of control

Q: What about the T/C ([2]; T/C endpoint: median survival time, dose: 180.0 mg/kg/injection, schedule: Q01DX013 (sc), vehicle: steroid suspending solution, evaluated on day 40) of the same compound?
A: 131 % of control [7 of 8 alive]

Q: And the T/C ([2]; T/C endpoint: median survival time, dose: 180.0 mg/kg/injection, schedule: Q01DX017 (oral), vehicle: steroid suspending solution, evaluated on day 6)?
A: 129 % of control

Q: And the T/C ([2]; T/C endpoint: median survival time, dose: 180.0 mg/kg/injection, schedule: Q01DX017 (oral), vehicle: steroid suspending solution, evaluated on day 47)?
A: 133 % of control

Q: And the T/C ([2]; T/C endpoint: median survival time, dose: 180.0 mg/kg/injection, schedule: Q01DX Z (sc), vehicle: steroid suspending solution, evaluated on day 36)?
A: 144 % of control

Q: And the T/C ([2]; T/C endpoint: median survival time, dose: 180.0 mg/kg/injection, schedule: Q01DX Z (sc), vehicle: steroid suspending solution, evaluated on day 40)?
A: 126 % of control

Q: What about the T/C ([2]; T/C endpoint: median survival time, dose: 180.0 mg/kg/injection, schedule: Q ##X015 (oral), vehicle: steroid suspending solution) of the same compound?
A: 125 % of control

Q: What about the T/C ([2]; T/C endpoint: median survival time, dose: 180.0 mg/kg/injection, schedule: Q## X015 (oral), vehicle: steroid suspending solution) of the same compound?
A: 127 % of control

Q: What about the T/C ([2]; T/C endpoint: median survival time, dose: 300.0 mg/kg/injection, schedule: Q01DX009 (sc), vehicle: other) of the same compound?
A: 125 % of control

Q: What about the T/C ([2]; T/C endpoint: median survival time, dose: 300.0 mg/kg/injection, schedule: Q01DX009 (sc), vehicle: steroid suspending solution, evaluated on day 6) of the same compound?
A: 138 and 146 % of control

Q: What about the T/C ([2]; T/C endpoint: median survival time, dose: 300.0 mg/kg/injection, schedule: Q01DX013 (sc), vehicle: other) of the same compound?
A: 130 % of control

Q: What about the T/C ([2]; T/C endpoint: median survival time, dose: 300.0 mg/kg/injection, schedule: Q01DX013 (sc), vehicle: steroid suspending solution, evaluated on day 6) of the same compound?
A: 145 % of control

Q: And the T/C ([2]; T/C endpoint: median survival time, dose: 300.0 mg/kg/injection, schedule: Q01DX013 (sc), vehicle: steroid suspending solution, evaluated on day 36)?
A: 127 % of control

Q: And the T/C ([2]; T/C endpoint: median survival time, dose: 300.0 mg/kg/injection, schedule: Q01DX013 (sc), vehicle: steroid suspending solution, evaluated on day 40)?
A: 136 % of control

Q: What about the T/C ([2]; T/C endpoint: median survival time, dose: 300.0 mg/kg/injection, schedule: Q01DX017 (oral), vehicle: steroid suspending solution, evaluated on day 6) of the same compound?
A: 141 % of control

Q: And the T/C ([2]; T/C endpoint: median survival time, dose: 300.0 mg/kg/injection, schedule: Q01DX017 (oral), vehicle: steroid suspending solution, evaluated on day 47)?
A: 144 % of control

Q: What about the T/C ([2]; T/C endpoint: median survival time, dose: 300.0 mg/kg/injection, schedule: Q01DX Z (sc), vehicle: steroid suspending solution) of the same compound?
A: 136 % of control

Q: And the T/C ([2]; T/C endpoint: median survival time, dose: 300.0 mg/kg/injection, schedule: Q ##X015 (oral), vehicle: steroid suspending solution)?
A: 138 % of control

Q: And the T/C ([2]; T/C endpoint: median survival time, dose: 300.0 mg/kg/injection, schedule: Q## X015 (oral), vehicle: steroid suspending solution)?
A: 138 % of control

Q: What about the T/C ([2]; T/C endpoint: median survival time, dose: 500.0 mg/kg/injection, schedule: Q01DX009 (sc), vehicle: other) of the same compound?
A: 140 % of control

Q: What about the T/C ([2]; T/C endpoint: median survival time, dose: 500.0 mg/kg/injection, schedule: Q01DX009 (sc), vehicle: steroid suspending solution, evaluated on day 6) of the same compound?
A: 141 % of control

Q: What about the T/C ([2]; T/C endpoint: median survival time, dose: 500.0 mg/kg/injection, schedule: Q01DX009 (sc), vehicle: steroid suspending solution, evaluated on day 37) of the same compound?
A: 144 % of control

Q: And the T/C ([2]; T/C endpoint: median survival time, dose: 500.0 mg/kg/injection, schedule: Q01DX009 (sc), vehicle: steroid suspending solution, evaluated on day 38)?
A: 135 % of control

Q: And the T/C ([2]; T/C endpoint: median survival time, dose: 500.0 mg/kg/injection, schedule: Q01DX015 (sc), vehicle: Klucel (hydroxypropylcellulose) (HPC), evaluated on day 7)?
A: 141 % of control

Q: And the T/C ([2]; T/C endpoint: median survival time, dose: 500.0 mg/kg/injection, schedule: Q01DX015 (sc), vehicle: Klucel (hydroxypropylcellulose) (HPC), evaluated on day 64)?
A: 138 % of control

Q: And the T/C ([2]; T/C endpoint: median survival time, dose: 500.0 mg/kg/injection, schedule: Q01DX017 (oral), vehicle: steroid suspending solution)?
A: 148 % of control

Q: What about the T/C ([2]; T/C endpoint: median survival time, dose: 500.0 mg/kg/injection, schedule: Q ##X015 (oral), vehicle: steroid suspending solution) of the same compound?
A: 148 % of control

Reference: PubChem BioAssay AID250 (DTP/NCI, 2004)
